Some of the results follow.
What follows are targets tested with C1=CC(=CC=C1C2=NC3=C(N2)C=C(C=C3)C(=O)N)OC4=CC=C(C=C4)Cl (assay: log2 fold change, soluble protein after heating vs DMSO (PISA); higher = thermal stabilisation; K562 lysate, 10 uM; active = over 0.2 and 3.5 SD of the protein, either way, in both replicates (recomputed)).
Summary of the method: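 K562 pellets were dounce-homogenised in PBS pH 7.4 containing 1 mM MgCl2, and the crude extract, at 1 mg/mL protein, was exposed to 10 μM compound for 30 min. Aliquots were heated for 3 min across 48°C-58°C, pooled, brought to 0.5% NP-40 at 4°C and spun at 21,000xg for 90 min, with the supernatant taken as soluble protein. TMTpro 16plex LC-MS/MS with equalised channel sums quantified that protein. Values are log-two fold changes in thermal stability relative to solvent controls, taken from duplicates.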

The chains behind the UniProt entries cited, without tags or fusion partners. Where a name states a change or a piece, a line headed by the entry shows the natural chain unless it says otherwise.
UniProt Q7L8W6: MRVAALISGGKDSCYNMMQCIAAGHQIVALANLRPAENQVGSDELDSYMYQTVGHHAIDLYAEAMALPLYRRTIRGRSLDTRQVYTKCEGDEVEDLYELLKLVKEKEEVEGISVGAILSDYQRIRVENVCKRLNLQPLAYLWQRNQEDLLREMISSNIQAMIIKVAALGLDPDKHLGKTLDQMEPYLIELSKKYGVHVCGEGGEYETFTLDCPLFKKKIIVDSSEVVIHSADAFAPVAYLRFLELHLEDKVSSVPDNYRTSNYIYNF
UniProt Q7Z2Z2: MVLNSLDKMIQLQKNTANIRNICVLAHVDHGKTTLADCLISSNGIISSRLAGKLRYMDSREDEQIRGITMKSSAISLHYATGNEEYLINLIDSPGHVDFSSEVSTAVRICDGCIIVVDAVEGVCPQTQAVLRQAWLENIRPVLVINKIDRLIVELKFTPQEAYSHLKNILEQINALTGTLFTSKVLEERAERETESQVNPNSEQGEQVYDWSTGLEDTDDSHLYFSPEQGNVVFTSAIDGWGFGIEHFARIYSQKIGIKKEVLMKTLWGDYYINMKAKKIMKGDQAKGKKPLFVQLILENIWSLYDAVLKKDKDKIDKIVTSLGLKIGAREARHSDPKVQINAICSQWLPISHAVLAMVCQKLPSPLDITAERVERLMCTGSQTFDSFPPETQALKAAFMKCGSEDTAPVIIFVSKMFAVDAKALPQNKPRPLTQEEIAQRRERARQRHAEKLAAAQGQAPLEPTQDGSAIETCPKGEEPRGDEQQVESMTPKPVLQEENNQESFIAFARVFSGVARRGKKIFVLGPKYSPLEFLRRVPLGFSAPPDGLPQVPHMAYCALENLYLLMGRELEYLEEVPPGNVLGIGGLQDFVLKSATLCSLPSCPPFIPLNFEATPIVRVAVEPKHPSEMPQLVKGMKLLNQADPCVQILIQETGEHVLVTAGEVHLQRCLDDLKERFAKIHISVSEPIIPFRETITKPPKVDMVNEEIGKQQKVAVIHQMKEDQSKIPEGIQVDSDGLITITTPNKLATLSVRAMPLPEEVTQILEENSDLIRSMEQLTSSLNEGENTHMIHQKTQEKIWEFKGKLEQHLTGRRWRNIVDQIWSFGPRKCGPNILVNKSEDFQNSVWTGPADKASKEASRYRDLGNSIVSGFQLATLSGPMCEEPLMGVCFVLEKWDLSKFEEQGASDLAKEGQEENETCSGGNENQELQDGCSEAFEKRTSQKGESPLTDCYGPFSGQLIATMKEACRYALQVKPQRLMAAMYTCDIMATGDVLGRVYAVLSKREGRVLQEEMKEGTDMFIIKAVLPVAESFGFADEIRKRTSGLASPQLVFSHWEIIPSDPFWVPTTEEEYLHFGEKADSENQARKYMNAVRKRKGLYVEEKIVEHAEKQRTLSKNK
UniProt Q5JPH6: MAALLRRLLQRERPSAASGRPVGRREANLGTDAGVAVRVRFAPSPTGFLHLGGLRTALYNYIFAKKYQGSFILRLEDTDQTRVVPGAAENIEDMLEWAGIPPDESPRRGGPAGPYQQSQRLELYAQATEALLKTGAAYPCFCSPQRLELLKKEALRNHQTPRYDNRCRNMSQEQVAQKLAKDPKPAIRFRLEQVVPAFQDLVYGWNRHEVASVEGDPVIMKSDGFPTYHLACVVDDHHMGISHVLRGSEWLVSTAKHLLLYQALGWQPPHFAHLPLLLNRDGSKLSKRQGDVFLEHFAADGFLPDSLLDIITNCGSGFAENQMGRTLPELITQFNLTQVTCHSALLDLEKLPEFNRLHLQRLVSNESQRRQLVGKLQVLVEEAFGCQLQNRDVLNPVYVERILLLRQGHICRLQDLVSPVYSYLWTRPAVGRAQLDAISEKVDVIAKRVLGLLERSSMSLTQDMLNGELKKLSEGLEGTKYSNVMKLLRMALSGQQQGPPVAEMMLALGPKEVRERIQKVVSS
UniProt Q9H8V3: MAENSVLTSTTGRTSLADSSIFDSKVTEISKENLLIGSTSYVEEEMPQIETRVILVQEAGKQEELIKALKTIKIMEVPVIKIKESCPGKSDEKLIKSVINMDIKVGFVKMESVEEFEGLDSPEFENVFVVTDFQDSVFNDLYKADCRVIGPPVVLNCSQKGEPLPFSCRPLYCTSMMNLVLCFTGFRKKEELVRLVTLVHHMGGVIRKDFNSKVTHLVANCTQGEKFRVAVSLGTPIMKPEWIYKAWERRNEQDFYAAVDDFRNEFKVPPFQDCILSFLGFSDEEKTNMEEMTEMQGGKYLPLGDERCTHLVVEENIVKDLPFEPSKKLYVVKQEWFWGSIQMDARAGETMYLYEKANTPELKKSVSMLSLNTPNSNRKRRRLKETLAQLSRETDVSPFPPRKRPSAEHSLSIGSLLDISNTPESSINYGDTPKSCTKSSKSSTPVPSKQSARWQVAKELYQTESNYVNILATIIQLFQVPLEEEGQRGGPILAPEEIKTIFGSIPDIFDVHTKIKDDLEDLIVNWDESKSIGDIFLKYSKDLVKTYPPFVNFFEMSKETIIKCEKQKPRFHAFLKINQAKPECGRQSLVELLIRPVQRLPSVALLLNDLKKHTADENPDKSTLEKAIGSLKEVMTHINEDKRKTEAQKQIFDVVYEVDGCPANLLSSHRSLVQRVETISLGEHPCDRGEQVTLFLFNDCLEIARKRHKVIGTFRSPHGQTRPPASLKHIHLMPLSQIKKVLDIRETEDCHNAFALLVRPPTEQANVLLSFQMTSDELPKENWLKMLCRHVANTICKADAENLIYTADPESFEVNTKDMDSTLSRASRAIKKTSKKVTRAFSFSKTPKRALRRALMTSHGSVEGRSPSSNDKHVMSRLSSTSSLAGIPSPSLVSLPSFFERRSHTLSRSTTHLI
UniProt Q14919: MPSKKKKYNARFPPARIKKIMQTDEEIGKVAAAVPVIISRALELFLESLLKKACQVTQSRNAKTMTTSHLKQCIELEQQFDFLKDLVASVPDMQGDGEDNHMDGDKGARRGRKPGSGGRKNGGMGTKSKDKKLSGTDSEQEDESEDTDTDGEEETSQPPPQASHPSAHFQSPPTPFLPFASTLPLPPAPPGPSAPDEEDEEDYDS
UniProt Q9Y6G9, whole entry, looked up: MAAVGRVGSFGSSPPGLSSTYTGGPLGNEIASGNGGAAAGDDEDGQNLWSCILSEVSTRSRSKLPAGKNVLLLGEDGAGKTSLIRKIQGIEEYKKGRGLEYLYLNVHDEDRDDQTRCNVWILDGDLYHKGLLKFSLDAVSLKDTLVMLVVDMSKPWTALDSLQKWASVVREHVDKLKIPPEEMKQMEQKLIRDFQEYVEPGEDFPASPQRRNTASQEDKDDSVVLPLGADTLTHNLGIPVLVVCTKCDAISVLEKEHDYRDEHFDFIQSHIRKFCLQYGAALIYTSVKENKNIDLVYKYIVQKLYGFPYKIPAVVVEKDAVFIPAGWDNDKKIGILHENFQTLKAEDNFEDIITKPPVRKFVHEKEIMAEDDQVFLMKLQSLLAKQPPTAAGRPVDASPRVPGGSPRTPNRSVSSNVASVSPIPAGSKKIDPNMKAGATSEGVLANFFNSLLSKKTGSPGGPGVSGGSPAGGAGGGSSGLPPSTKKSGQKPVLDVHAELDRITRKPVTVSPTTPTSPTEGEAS
UniProt Q01658: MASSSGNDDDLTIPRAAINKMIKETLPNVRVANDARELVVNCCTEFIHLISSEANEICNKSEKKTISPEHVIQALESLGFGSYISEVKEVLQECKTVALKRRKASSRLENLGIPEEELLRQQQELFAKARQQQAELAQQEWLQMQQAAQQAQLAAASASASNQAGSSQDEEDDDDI
UniProt Q96G46: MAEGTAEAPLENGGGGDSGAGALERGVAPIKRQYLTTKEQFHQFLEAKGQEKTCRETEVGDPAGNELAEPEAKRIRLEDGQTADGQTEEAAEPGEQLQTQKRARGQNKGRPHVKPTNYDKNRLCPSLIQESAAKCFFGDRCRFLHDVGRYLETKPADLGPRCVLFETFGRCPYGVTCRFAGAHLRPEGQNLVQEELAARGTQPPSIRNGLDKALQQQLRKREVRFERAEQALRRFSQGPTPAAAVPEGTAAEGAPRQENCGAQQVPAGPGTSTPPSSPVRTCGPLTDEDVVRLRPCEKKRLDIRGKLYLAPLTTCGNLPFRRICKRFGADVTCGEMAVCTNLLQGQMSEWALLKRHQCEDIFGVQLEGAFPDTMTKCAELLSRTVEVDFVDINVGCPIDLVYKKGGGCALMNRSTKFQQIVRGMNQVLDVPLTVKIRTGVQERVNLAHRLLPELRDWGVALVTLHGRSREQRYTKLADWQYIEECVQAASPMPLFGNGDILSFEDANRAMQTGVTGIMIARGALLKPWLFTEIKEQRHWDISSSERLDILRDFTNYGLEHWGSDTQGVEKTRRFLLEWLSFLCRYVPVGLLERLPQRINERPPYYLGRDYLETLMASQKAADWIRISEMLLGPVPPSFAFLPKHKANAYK
UniProt Q9BQC3: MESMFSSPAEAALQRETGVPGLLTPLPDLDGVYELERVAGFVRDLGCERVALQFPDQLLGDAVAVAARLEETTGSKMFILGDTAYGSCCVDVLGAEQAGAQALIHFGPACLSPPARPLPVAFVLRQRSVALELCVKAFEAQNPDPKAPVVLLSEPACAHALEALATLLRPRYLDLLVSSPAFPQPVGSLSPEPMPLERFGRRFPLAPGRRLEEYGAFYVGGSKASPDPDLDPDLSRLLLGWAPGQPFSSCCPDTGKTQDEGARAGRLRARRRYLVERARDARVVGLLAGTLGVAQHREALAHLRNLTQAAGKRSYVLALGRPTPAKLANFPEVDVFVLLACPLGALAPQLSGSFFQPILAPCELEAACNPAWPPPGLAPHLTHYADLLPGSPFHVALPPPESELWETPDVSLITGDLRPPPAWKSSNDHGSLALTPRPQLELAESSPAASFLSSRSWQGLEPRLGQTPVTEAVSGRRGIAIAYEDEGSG
UniProt O43237, whole entry, looked up: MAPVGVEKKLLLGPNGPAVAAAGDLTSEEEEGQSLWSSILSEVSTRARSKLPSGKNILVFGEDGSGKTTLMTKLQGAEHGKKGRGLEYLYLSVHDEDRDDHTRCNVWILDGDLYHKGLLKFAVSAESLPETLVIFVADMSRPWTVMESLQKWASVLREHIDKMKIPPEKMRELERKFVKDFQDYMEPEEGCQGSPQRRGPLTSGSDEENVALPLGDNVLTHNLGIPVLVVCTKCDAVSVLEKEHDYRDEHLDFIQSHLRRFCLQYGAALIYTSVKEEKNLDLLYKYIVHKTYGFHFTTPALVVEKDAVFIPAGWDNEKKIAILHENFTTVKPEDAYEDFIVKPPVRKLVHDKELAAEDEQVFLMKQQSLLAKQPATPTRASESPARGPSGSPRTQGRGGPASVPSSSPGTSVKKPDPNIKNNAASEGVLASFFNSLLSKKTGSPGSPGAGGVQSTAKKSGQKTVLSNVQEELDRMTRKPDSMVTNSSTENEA
UniProt Q9BVC3, whole entry, looked up: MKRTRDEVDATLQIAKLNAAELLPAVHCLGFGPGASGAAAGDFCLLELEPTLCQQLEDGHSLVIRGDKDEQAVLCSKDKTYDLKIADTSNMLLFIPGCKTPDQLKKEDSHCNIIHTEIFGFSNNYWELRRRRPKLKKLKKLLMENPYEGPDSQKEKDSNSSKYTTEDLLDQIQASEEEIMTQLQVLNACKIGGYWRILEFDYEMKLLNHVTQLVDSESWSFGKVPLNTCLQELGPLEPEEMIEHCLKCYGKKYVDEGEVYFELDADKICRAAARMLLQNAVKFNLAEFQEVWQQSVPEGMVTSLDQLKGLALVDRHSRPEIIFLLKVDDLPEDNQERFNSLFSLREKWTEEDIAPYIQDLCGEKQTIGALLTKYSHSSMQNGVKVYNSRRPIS
UniProt P63167, whole entry, looked up: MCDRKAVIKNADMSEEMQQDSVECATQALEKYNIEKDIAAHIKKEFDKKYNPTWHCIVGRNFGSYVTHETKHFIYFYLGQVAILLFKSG
UniProt Q13409, whole entry, looked up: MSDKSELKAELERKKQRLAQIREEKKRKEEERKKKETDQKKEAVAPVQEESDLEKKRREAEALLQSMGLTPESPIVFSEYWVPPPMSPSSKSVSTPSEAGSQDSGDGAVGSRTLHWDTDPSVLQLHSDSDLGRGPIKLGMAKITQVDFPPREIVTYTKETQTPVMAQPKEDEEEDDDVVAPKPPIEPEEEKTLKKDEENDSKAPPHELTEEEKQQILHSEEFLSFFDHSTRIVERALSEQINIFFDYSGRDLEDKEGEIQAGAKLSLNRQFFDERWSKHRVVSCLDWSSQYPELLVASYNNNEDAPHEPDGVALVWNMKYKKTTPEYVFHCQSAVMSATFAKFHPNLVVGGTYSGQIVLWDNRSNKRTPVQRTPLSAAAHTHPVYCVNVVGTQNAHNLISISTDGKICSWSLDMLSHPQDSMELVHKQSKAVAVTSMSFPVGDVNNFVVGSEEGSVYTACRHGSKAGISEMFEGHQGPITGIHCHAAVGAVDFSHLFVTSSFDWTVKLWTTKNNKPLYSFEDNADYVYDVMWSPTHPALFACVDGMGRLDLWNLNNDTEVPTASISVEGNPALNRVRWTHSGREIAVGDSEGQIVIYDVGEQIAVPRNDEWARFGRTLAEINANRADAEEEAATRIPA

log2 fold change, inactive:
DVL3 (UniProt Q92997) -0.007
EEF1AKNMT (UniProt Q8N6R0) -0.02
DUS4L (UniProt O95620) 0.023
DPH6 (UniProt Q7L8W6) 0.036
EFL1 (UniProt Q7Z2Z2) -0.005
EARS2 (UniProt Q5JPH6) 0.027
ECT2 (UniProt Q9H8V3) 0.386
DSG2 (UniProt Q14126) -0.023
DRAP1 isoform 2 (UniProt Q14919) 0.054
DYNC1LI1 (UniProt Q9Y6G9) 0.007
EHD2 (UniProt Q9NZN4) -0.043
E2F3 (UniProt O00716) -0.023
DR1 (UniProt Q01658) 0.021
DYNC1H1 (UniProt Q14204) 0.011
DUS3L (UniProt Q96G46) 0.048
DPH2 (UniProt Q9BQC3) -0.041
DYNC1LI2 (UniProt O43237) -0.001
EEA1 (UniProt Q15075) 0.003
DSCC1 (UniProt Q9BVC3) -0.043
ECI1 (UniProt P42126) -0.009
E2F4 (UniProt Q16254) -0.054
DYNLL1 (UniProt P63167) 0.046
DYNC1I2 isoform 2 (UniProt Q13409) 0.108

Random excerpt: 2 records from the list
log2 fold change, inactive:
DRAP1 isoform 2 (UniProt Q14919) 0.054
DVL3 (UniProt Q92997) -0.007
